# Source: PubChem BioAssay AID1259425 (University of Nebraska Medical Center, 2018)
# Test: 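Seek colon cancer weak points whose silencing resembles KSR1 loss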 (primary screen)
# Cell system: HCT116 human colon cancer cells
# Knock-down reagent: siRNA pool against human genes, 50 nM siRNA
# Measurement: 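mRNA of six signature genes measured together by branched-DNA assay after 50 nM siRNA pool, blank removed, divided by geometric mean of two housekeeping genes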
# Direction: BNIP3L mRNA: higher = more BNIP3L transcript after knockdown; NDRG1 mRNA: higher = more NDRG1 transcript after knockdown; BNIP3 mRNA: higher = more BNIP3 transcript after knockdown; ALDOC mRNA: higher = more ALDOC transcript after knockdown; ACSL5 mRNA: higher = more ACSL5 transcript after knockdown
# The whole screen tested about 14,000 reagents; this is an unselected part. Reagent sequences are not shown. The record does not give: the time to read-out.
target gene,"BNIP3L mRNA, set 1","NDRG1 mRNA, set 1","BNIP3 mRNA, set 1","ALDOC mRNA, set 1","ACSL5 mRNA, set 1"
ZEB2,0.0578,0.0813,0.391,0.0109,0.288
CUL7,0.136,0.407,0.411,0.0423,0.166
SLC8A3,0.15,0.383,0.228,0.0995,0.0835
CXCR4,0.132,0.201,0.346,0.0462,0.197
GREB1L,0.125,0.164,0.365,0.0197,0.294
CMTR2,0.104,0.0863,0.327,0.0443,0.106
DCPH1,0.129,0.112,0.313,0.0207,0.279
C3,0.0686,0.341,0.307,0.0418,0.154
ZNF154,0.0816,0.214,0.193,0.0426,0.0671
HEPH,0.128,0.186,0.245,0.0321,0.136
DNAJB5,0.133,0.171,0.315,0.0327,0.134
ACTG2,0.0689,0.306,0.185,0.0304,0.222
NTRK3,0.0577,0.0768,0.278,0.00609,0.127
SEPTIN4,0.11,0.724,0.407,0.0412,0.332
GOLGA2,0.13,0.0955,0.263,0.046,0.0905
CATSPERB,0.0852,0.131,0.299,0.0187,0.251
HSSUCCDH (retired record),0.112,0.147,0.289,0.0174,0.162
ARHGEF28,0.159,0.177,0.262,0.0505,0.12
SSTR1,0.132,0.301,0.652,0.0892,0.618
SCN5A,0.0883,0.24,0.372,0.032,0.22
TNFSF15,0.108,0.114,0.179,0.0277,0.165
LYSET,0.184,0.392,0.538,0.0291,0.0886
ZNF527,0.139,0.299,0.249,0.0745,0.186
CNGB1,0.132,0.304,0.293,0.0256,0.0704
CCDC74A,0.173,0.122,0.361,0.0596,0.143
CD37,0.123,0.122,0.281,0.0335,0.232
TMEM230,0.101,0.113,0.216,0.0228,0.224
ERMP1,0.137,0.174,0.249,0.0555,0.226
VASH1,0.145,0.226,0.247,0.0545,0.119
ACOT2,0.0665,0.291,0.425,0.00744,0.353
LIMK2,0.0427,0.179,0.456,0.0204,0.222
ZAP70,0.119,0.109,0.283,0.00249,0.154
TMED2,0.117,0.105,0.242,0.0369,0.132
CD300A,0.0736,0.181,0.346,0.0154,0.202
ATP10A,0.12,0.173,0.35,0.0309,0.139
CPEB3,0.132,0.388,0.353,0.0381,0.198
SNX1,0.11,0.193,0.269,0.035,0.143
HTRA1,0.117,0.135,0.264,0.0176,0.101
ACOT12,0.0848,0.116,0.307,0.0248,0.323
EDA2R,0.0717,0.357,0.251,0.0107,0.135
VMA22,0.119,0.135,0.279,0.102,0.245
DGAT1,0.154,0.193,0.182,0.00729,0.299
ORMDL2,0.187,0.17,0.582,0.0587,0.204
NELFB,0.0873,0.204,0.505,0.0364,0.221
ADAMTS18,0.0661,0.132,0.407,0.0279,0.224
MAP7,0.166,0.15,0.375,0.0767,0.165
ZNF442,0.227,0.471,0.302,0.107,0.173
METTL16,0.0801,0.175,0.216,0.0166,0.166
HBE1,0.0301,0.366,0.256,0.0261,0.157
AKR1C1,0.0794,0.226,0.21,0.0459,0.102
TCP11L1,0.104,0.163,0.419,0.0089,0.169
OXTR,0.121,0.131,0.164,0.0469,0.106
AFM,0.0871,0.209,0.235,0.0183,0.126
UQCRB,0.099,0.113,0.262,0.0268,0.0766
SEM1,0.0483,0.31,0.385,0.0639,0.132
DPP3,0.102,0.143,0.22,0.0576,0.143
RRP8,0.138,0.127,0.348,0.0242,0.123
DUSP22,0.0589,0.056,0.315,0.0115,0.169
MSH4,0.0364,0.182,0.208,0.0116,0.304
PLEKHG5,0.0813,0.0467,0.276,0.0614,0.0678
VSNL1,0.0642,0.111,0.3,0.0207,0.12
MYO1F,0.159,0.203,0.324,0.054,0.214
IFI44,0.128,0.249,0.301,0.0396,0.119
